PubChem BioAssay AID1224831 – NIAID, 2016
Assay: 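Confirming genome-wide hits on LPS-triggered TNF-alpha induction with independent siRNA sequences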 (follow-up of hits). Cells: human THP-1 B5 monocytic leukaemia cells carrying a TNF promoter luciferase reporter, made macrophage-like with PMA. Reagent: single siRNA against human genes, 50 nM. Time to read-out: about 68 h of knock-down, then 4 h LPS. Challenge: LPS (Salmonella minnesota, TLR-grade) at 10 ng/ml for 4 h; PMA 5 ng/ml present during knock-down. Measurement: 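TNF promoter reporter read as dual luciferase ratio after 4 h LPS, normalised per plate to its median, given as replicate mean robust z-score per siRNA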. Scale: TNF reporter z-score: higher = stronger LPS-induced TNF reporter signal; z-score, median over gene's siRNAs: higher = stronger TNF reporter signal across the gene's siRNAs. Active means: 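Two-sided call: reduced or raised TNF reporter signal counts as active once mean z reaches about -1 or below, or about 1.5 or above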. Calls: active = changed TNF reporter (either direction); inactive = little change.
This is a random part of about 3,500 deposited reagents. Of all reagents, 731 (21%) got an active call. 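Active means either lowered or raised reporter signal; the gene-median score did not drive the per-siRNA calls.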 Reagents against one gene are numbered here. No sequences are given here.

gene	siRNA no.	TNF reporter z-score, replicate mean	z-score, median over gene's siRNAs	Call
SELL	1	1.32	0.255	inactive
SELL	2	0.03	0.255	inactive
SELL	3	0.48	0.255	inactive
SELL	4	-0.36	0.255	inactive
SELL	5	1.98	0.255	active
SELL	6	-0.29	0.255	inactive
C9orf163	1	0.33	0.015	inactive
C9orf163	2	-0.31	0.015	inactive
C9orf163	3	0.03	0.015	inactive
C9orf163	4	0.06	0.015	inactive
C9orf163	5	-0.46	0.015	inactive
C9orf163	6	0	0.015	inactive
LCN8	1	-0.01	0.25	inactive
LCN8	2	0.51	0.25	inactive
LCN8	3	0.63	0.25	inactive
LCN8	4	-0.22	0.25	inactive
LCN8	5	-0.98	0.25	inactive
LCN8	6	0.55	0.25	inactive
CCDC78	1	-0.29	-0.495	inactive
CCDC78	2	-1.52	-0.495	active
CCDC78	3	0.19	-0.495	inactive
CCDC78	4	-0.9	-0.495	inactive
CCDC78	5	-0.7	-0.495	inactive
CCDC78	6	0.16	-0.495	inactive
TCN1	1	2.33	0.855	active
TCN1	2	-0.12	0.855	inactive
TCN1	3	-1.09	0.855	active
TCN1	4	3.98	0.855	active
TCN1	5	0.31	0.855	inactive
TCN1	6	1.4	0.855	inactive
EFCAB11	1	-0.5	-0.685	inactive
EFCAB11	2	-0.89	-0.685	inactive
EFCAB11	3	-2.52	-0.685	active
EFCAB11	4	0.29	-0.685	inactive
EFCAB11	5	-0.87	-0.685	inactive
EFCAB11	6	-0.5	-0.685	inactive
CETN3	1	0.86	0.235	inactive
CETN3	2	0.43	0.235	inactive
CETN3	3	-0.11	0.235	inactive
CETN3	4	1.39	0.235	inactive
CETN3	5	0.04	0.235	inactive
CETN3	6	-0.21	0.235	inactive
GHRH	1	-0.07	-0.235	inactive
GHRH	2	-0.02	-0.235	inactive
GHRH	3	-0.4	-0.235	inactive
GHRH	4	-0.79	-0.235	inactive
GHRH	5	-1.34	-0.235	active
GHRH	6	0.23	-0.235	inactive
MEX3D	1	-0.11	0.32	inactive
MEX3D	2	0.75	0.32	inactive
MEX3D	3	-1.82	0.32	active
MEX3D	4	1.15	0.32	inactive
MEX3D	5	-0.51	0.32	inactive
MEX3D	6	1.19	0.32	inactive
RPAP3	1	0.83	0.785	inactive
RPAP3	2	0.74	0.785	inactive
RPAP3	3	0.51	0.785	inactive
RPAP3	4	0.93	0.785	inactive
RPAP3	5	-0.18	0.785	inactive
RPAP3	6	0.91	0.785	inactive
PCDHGB1	1	-0.45	0.61	inactive
PCDHGB1	2	0.04	0.61	inactive
PCDHGB1	3	1.24	0.61	inactive
PCDHGB1	4	1.29	0.61	inactive
PCDHGB1	5	0.45	0.61	inactive
PCDHGB1	6	0.77	0.61	inactive
PKIG	1	-0.57	-0.23	inactive
PKIG	2	-0.51	-0.23	inactive
PKIG	3	-0.28	-0.23	inactive
PKIG	4	0.06	-0.23	inactive
PKIG	5	-0.18	-0.23	inactive
PKIG	6	1.06	-0.23	inactive
SERPINB10	1	0.2	0.315	inactive
SERPINB10	2	0.96	0.315	inactive
SERPINB10	3	0.39	0.315	inactive
SERPINB10	4	-0.62	0.315	inactive
SERPINB10	5	0.31	0.315	inactive
SERPINB10	6	0.32	0.315	inactive
ZNF85	1	-0.09	-0.135	inactive
ZNF85	2	-0.18	-0.135	inactive
ZNF85	3	-0.71	-0.135	inactive
ZNF85	4	0.02	-0.135	inactive
ZNF85	5	1.98	-0.135	active
ZNF85	6	-0.38	-0.135	inactive
